At least one structure is not confirmed: it was looked up by name or label, or the drawing left a doubt.
How the values were obtained:
[1] = tested on: gastric cancer cell line MKN45; assay: Combination cell viability CTG assay, MKN45; type: cell-based, human; settings: MKN45, 72 hours, FIG. 22
[2] = tested on: lung cancer cell line EBC1; assay: Combination cell viability CTG assay, EBC1; type: cell-based, human; settings: EBC1, 72 hours, FIG. 21

**Q.** Which results are given for `CCCS(=O)(=O)Nc1ccc(F)c(C(=O)c2c[nH]c3ncc(-c4ccc(Cl)cc4)cc23)c1F` [vemurafenib]?
**A.** anti-tumor efficacy (cell viability) when co-treated with huAbF46-H4-A1 (IgG2 Fc) [1]: significantly improved; anti-tumor efficacy (cell viability) when co-treated with huAbF46-H4-A1 (IgG2 Fc) [2]: significantly improved

Reference: patent publication US9717715B2, “Method of combination therapy using an anti-C-Met antibody” (Samsung Electronics Co., Ltd., priority 2013, dated 2017)
